Laboratory results from paper PMC10420963, “Exploring Novel Drug Combinations: The Therapeutic Potential of Selanyl Derivatives for Leishmania Treatment” (Molecules, 2023).

Key:
[1] = system: L. infantum promastigotes; test: Leishmanicidal activity against L. infantum promastigotes (MTT assay); format: cell-based, Leishmania infantum; details: ratio CC50 in macrophages / IC50 of L. infantum parasites
Method: (§1) Promastigotes. L. major (clone VI, MHOM/IL/80) and L. infantum (clone, BCN-150) parasites were cultured at 26 °C under continuous shaking in M199 1× medium (Sigma, St. Louis, MO, USA) supplemented with heat-inactivated fetal bovine serum (FBS), 25 mM HEPES (pH 7), 0.1 mM adenine, 0.0005% (w/v) haemin, […], 0.0005% (w/v) biotin, 100 IU/mL penicillin and […]. For each experiment, the culture medium was changed everyday in order to achieve parasite in exponential growth phase.
(§2) In order to determine the leishmanicidal activity of the compounds obtained in this study, promastigotes of L. major and L. infantum strains were seeded in 96-well plates (3 ×·10^6 parasite/mL) in exponential growth phase at increasing concentrations (1–500 μM) of the compounds and maintained at 26 °C. After 48 h of incubation, the IC50 was determined by MTT assay. The absorbance was measured in a MultiskanEX photometric plate reader for microplates at 540 nm. Data were obtained from three independent experiments performed in triplicate.

[2] = system: L. major promastigotes; test: Leishmanicidal activity against L. major promastigotes (MTT assay); format: cell-based, Leishmania major; details: ratio CC50 in macrophages / IC50 of L. major parasites
Method: as §1, §2

Compound | SI L. infantum [1] | SI L. major [2]
CCCCCCC(=O)[Se]CC(=O)O [A4, 2-(heptanoylselanyl)acetic acid] | 6 | 3
O=C(O)C[Se]C(=O)C1CC1 [A5, 2-((cyclopropanecarbonyl)selanyl)acetic acid] | 9 | 2
O=C(O)C[Se]C(=O)C1CCC1 [A6, 2-((cyclobutanecarbonyl)selanyl)acetic acid] | 11 | 3
O=C(O)C[Se]C(=O)C1CCCCC1 [A8, 2-((cyclohexanecarbonyl)selanyl)acetic acid] |  | 2
